At least one compound was matched to its structure with a doubt left.
Tested on: lac promoter/operator
Experiment: Control lac P/O construct, GFP expression
Format: cell-based, E. coli
Details: 1 mM IPTG
Text: FIGS. 52 and 53 illustrate the increased dynamic regulation of expression of a gene of interest (here exemplified by green fluorescent protein) that can be achieved using gene constructs in accordance with the present invention, as compared to comparator (control) constructs. In the control constructs GFP expression is controlled directly by a lac promoter/operator alone. In contrast, in the gene constructs of the invention GFP expression is controlled by both a lac promoter/operator, and a riboswitch. In this arrangement the lac promoter provides transcriptional control of expression, and the riboswitch provides translational control. FIGS. 52 and 53 respectively show data generated by gene constructs of the invention comprising first and second generation riboswitches (referred to respectively as “1st Generation” and “2nd Generation” constructs) when present on high copy plasmids in E. coli Top10F′. In this example, the first generation riboswitch comprises AddA (the ligand for which is adenine), and the second generation riboswitch comprises M6″ (the ligand for which is A43). […]
The induction factor represents the degree to which gene expression is controlled, and is determined from the ratio of the maximum induced protein expression over the basal protein expression level. […]

Compound `CC(C)S[C@@H]1O[C@H](CO)[C@H](O)[C@H](O)[C@H]1O` [IPTG] has a GFP expression of roughly 100×1O^6 fu/OD.

From patent publication US20140213779A1, “RIBOSWITCHES” (THE UNIVERSITY OF MANCHESTER, priority 2011, published 2014)
